Measured values taken from the supplement of paper PMC10849652.
The other results are listed elsewhere or left out.

By UniProt entry, the sequences of proteins in these tests, tags left out. Where a name states a change or a piece, a line headed by the entry shows the natural chain unless it says otherwise.
UniProt Q9NZN8, whole entry, looked up: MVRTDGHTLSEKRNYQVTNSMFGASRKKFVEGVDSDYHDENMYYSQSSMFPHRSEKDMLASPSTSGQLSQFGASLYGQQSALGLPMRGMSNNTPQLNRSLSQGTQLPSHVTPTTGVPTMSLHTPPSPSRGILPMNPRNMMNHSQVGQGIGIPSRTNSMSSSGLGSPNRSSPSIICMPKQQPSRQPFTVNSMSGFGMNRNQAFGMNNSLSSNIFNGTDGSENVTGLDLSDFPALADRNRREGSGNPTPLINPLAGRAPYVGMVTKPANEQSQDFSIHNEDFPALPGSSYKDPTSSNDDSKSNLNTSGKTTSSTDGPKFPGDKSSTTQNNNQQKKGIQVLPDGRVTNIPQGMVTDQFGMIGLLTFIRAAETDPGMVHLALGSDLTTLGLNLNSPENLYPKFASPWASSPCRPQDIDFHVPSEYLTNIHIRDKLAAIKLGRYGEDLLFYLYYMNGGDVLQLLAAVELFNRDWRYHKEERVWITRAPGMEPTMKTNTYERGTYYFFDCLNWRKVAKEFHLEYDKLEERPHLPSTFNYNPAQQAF
UniProt P53618: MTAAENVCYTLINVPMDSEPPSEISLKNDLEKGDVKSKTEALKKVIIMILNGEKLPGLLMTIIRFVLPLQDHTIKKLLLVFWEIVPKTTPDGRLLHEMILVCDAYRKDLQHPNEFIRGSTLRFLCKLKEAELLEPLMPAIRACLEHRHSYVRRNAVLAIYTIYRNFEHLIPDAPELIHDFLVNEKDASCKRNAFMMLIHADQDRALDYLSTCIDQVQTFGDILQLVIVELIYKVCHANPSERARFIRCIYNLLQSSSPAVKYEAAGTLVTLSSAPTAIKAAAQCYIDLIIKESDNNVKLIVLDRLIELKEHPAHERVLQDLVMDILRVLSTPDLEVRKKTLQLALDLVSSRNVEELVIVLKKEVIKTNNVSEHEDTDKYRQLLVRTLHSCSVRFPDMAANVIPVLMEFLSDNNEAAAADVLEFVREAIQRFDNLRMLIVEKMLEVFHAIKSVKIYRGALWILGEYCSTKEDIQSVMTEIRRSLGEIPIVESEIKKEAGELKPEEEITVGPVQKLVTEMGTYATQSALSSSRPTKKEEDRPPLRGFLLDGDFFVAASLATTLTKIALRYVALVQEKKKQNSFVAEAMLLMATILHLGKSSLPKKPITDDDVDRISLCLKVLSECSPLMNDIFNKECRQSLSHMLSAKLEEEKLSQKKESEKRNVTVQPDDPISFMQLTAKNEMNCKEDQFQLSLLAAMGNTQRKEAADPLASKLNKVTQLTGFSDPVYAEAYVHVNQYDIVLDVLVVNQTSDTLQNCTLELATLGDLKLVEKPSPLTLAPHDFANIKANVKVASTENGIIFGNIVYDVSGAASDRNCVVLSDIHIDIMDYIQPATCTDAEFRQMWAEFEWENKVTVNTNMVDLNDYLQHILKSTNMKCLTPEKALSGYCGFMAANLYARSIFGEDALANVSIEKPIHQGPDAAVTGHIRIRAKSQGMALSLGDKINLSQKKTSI
UniProt P20674, whole entry, looked up: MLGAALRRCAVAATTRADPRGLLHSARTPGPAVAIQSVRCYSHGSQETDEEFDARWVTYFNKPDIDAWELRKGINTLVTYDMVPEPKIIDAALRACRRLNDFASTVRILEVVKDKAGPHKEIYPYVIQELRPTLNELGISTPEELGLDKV
UniProt P35606: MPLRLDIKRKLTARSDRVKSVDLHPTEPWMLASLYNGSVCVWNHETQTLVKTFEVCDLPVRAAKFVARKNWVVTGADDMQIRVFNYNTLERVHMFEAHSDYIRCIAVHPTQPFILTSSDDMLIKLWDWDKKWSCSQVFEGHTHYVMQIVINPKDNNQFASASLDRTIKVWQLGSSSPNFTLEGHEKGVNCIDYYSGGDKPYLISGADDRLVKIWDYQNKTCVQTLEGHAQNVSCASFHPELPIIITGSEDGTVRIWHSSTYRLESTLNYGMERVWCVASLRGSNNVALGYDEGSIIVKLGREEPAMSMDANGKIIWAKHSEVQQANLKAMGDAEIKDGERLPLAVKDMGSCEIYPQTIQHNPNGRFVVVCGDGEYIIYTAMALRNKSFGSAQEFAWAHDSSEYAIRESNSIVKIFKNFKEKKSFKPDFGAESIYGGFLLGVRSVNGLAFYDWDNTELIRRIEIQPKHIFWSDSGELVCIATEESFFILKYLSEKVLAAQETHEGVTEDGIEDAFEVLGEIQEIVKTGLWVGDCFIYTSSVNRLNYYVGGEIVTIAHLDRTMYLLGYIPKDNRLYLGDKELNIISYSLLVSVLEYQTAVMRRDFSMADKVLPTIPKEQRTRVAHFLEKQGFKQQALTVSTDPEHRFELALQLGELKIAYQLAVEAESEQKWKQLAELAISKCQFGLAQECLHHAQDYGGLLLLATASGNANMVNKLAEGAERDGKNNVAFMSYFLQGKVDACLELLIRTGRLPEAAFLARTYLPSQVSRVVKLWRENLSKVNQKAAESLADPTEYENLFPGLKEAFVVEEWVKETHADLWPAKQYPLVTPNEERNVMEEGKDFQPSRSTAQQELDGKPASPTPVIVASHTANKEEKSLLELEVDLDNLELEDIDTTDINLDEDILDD
UniProt P38432, whole entry, looked up: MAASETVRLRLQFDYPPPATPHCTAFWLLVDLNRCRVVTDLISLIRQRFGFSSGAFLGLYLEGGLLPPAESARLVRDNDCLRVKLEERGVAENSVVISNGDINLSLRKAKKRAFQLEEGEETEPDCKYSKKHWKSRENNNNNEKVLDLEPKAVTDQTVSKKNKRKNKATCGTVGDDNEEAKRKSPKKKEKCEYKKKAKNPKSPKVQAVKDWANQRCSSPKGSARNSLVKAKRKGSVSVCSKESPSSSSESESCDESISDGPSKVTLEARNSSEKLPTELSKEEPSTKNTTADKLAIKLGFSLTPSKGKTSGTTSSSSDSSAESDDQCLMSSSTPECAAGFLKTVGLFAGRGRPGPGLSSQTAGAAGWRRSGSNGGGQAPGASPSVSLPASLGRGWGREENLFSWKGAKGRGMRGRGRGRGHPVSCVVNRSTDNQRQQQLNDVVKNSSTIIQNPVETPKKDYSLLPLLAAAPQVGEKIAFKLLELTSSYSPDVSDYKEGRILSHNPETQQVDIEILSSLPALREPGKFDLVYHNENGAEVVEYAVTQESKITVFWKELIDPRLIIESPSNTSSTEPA
UniProt Q9UFF9, whole entry, looked up: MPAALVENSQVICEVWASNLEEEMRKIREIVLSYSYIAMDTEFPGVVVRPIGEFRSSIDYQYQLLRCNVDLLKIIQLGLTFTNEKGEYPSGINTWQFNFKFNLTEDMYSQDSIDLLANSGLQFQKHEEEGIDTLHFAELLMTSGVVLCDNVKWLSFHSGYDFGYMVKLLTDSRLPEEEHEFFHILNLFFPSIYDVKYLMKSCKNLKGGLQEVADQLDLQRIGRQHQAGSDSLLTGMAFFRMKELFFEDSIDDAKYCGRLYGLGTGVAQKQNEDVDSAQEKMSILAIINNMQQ
UniProt O75131: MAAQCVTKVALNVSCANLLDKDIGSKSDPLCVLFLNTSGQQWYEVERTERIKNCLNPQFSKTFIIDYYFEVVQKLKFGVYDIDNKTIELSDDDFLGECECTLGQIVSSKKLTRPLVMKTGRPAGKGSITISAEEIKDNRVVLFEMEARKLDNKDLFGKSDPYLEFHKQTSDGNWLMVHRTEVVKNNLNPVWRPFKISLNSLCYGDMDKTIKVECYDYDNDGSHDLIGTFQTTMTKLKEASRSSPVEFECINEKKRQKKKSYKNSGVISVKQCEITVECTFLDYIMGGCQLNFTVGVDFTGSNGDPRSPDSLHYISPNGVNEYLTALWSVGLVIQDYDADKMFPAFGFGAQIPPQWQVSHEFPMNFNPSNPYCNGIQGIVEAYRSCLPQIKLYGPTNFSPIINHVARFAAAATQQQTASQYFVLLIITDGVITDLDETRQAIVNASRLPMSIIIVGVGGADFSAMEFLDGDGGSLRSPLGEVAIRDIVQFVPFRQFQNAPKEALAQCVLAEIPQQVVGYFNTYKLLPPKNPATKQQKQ
UniProt Q9Y6N1: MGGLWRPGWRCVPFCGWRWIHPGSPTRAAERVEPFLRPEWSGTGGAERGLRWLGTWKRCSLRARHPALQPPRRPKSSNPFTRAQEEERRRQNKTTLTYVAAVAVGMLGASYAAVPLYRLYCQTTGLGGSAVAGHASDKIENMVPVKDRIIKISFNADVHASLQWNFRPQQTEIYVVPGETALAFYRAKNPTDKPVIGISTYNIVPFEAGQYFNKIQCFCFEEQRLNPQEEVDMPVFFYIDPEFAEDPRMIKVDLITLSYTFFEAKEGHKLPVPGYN
UniProt Q16630, whole entry, looked up: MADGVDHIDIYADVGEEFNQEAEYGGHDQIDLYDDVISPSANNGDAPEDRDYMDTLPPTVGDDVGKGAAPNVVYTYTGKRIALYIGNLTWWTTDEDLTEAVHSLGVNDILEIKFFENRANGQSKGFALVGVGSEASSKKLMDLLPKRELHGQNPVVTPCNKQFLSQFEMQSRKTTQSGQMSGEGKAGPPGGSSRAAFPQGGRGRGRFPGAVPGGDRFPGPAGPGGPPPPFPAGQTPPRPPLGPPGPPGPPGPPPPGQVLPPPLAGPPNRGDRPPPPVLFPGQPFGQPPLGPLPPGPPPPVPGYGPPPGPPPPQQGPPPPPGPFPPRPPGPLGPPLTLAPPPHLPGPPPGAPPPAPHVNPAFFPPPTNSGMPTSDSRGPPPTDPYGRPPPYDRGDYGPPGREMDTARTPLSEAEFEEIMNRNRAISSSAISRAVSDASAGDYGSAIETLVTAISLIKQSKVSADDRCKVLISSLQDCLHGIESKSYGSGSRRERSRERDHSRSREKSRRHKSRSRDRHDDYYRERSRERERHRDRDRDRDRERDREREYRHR
UniProt Q5RI15: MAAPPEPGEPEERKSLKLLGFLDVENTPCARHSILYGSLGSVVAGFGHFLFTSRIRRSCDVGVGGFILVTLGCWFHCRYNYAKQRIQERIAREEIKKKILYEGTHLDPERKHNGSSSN
UniProt Q9GZY4: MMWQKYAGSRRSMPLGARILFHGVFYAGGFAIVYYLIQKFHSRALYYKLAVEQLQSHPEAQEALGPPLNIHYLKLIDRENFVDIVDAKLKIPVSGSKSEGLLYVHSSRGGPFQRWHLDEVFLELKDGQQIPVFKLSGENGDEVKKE
UniProt P09669, whole entry, looked up: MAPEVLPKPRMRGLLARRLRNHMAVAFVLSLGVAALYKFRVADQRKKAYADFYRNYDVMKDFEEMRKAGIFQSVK
UniProt P14854, whole entry, looked up: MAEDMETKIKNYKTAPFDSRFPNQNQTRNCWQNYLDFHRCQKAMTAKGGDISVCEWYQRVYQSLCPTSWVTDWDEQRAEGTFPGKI
UniProt Q8N684: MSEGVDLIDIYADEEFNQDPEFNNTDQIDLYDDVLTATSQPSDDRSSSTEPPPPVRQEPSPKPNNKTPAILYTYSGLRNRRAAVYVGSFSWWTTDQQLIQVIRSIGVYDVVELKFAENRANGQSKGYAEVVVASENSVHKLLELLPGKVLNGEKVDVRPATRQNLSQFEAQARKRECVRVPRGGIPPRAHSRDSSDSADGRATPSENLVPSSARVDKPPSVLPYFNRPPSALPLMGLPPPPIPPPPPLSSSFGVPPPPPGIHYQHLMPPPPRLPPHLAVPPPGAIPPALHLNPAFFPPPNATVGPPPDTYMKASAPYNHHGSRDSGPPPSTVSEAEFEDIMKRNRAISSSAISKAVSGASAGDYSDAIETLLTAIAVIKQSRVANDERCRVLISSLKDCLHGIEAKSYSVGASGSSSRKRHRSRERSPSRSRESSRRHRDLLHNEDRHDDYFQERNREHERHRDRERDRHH
UniProt Q5HYK3: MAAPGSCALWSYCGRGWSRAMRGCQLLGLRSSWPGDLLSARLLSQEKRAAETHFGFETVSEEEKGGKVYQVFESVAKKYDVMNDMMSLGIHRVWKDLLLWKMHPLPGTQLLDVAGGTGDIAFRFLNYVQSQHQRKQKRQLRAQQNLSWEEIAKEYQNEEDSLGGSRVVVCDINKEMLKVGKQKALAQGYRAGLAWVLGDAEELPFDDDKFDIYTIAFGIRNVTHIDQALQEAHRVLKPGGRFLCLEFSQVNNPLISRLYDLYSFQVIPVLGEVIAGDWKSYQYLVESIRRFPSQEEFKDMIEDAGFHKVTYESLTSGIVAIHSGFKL
UniProt O95628: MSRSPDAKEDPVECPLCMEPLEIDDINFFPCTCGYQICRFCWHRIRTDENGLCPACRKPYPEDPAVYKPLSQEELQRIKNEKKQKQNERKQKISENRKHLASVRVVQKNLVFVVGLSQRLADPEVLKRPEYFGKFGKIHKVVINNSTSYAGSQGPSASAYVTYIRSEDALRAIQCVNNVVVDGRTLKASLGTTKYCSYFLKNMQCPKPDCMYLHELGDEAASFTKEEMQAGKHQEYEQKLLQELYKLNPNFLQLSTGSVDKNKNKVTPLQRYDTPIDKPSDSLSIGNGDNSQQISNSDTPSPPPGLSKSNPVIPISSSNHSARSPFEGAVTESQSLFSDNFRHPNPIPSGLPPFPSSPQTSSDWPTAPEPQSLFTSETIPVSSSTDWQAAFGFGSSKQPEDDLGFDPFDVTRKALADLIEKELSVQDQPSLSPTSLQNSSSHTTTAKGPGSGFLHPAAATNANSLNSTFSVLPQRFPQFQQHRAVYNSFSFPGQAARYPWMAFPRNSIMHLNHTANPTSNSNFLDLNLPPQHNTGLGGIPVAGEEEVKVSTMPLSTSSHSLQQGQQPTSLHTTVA

Legend:
Assay in all cases: log2 fold change, soluble protein after heating vs DMSO (PISA); higher = thermal stabilisation; K562 lysate, 10 uM; active = over 0.2 and 3.5 SD of the protein, either way, in both replicates (recomputed)
vemurafenib = compound: CCCS(=O)(=O)Nc1ccc(F)c(C(=O)c2c[nH]c3ncc(-c4ccc(Cl)cc4)cc23)c1F [vemurafenib]
How it was run: (§1)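 The values are log-two fold changes in thermal stability compared with solvent controls and come from duplicates. They were obtained by TMTpro 16plex LC-MS/MS, with channel sums equalised, on the supernatant after 21,000xg for 90 min. That supernatant came from crude K562 extract at 1 mg/mL protein treated with 10 μM compound for 30 min, heated for 3 min across 48°C-58°C, pooled and brought to 0.5% NP-40 at 4°C.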

[1] = compound: CCCS(=O)(=O)Nc1ccc(F)c(C(=O)c2c[nH]c3ncc(Cl)cc23)c1F
How it was run: as §1

barasertib = compound: CCN(CCCOc1ccc2c(Nc3cc(CC(=O)Nc4cccc(F)c4)[nH]n3)ncnc2c1)CCOP(=O)(O)O [barasertib]
How it was run: as §1

[2] = compound: CC[C@@H]1C(=O)N(C)c2cnc(Nc3ccc(C(=O)NC4CCN(C)CC4)cc3OC)nc2N1C1CCCC1
How it was run: as §1

volasertib = compound: CC[C@@H]1C(=O)N(C)c2cnc(Nc3ccc(C(=O)N[C@H]4CC[C@H](N5CCN(CC6CC6)CC5)CC4)cc3OC)nc2N1C(C)C [volasertib]
How it was run: as §1

[3] = compound: CCn1c(C(=O)N(C2CC2)C2CC2)cc2c3c(ncn3C)c(Nc3cc(C)n(C)n3)nc21
How it was run: as §1

[4] = compound: CCn1cc(-c2ccnc3[nH]c(-c4cccc(CN(C)C)c4)cc23)c(-c2ccc(NC(=O)N(C)C)cc2)n1
How it was run: as §1

[5] = compound: CN1CCC(CNc2ccc3ncc(-c4cccc(OC(F)(F)F)c4)n3n2)CC1
How it was run: as §1

saracatinib = compound: CN1CCN(CCOc2cc(OC3CCOCC3)c3c(Nc4c(Cl)ccc5c4OCO5)ncnc3c2)CC1 [saracatinib]
How it was run: as §1

sotrastaurin = compound: CN1CCN(c2nc(C3=C(c4c[nH]c5ccccc45)C(=O)NC3=O)c3ccccc3n2)CC1 [sotrastaurin]
How it was run: as §1

Measured: log2 fold change

CNOT10 (UniProt Q9H9A5)
inactive: vemurafenib 0.04 | [1] -0.01 | barasertib 0.012 | [2] 0.025 | volasertib 0 | [3] -0.036 | [4] -0.028 | [5] 0.022 | saracatinib 0.02 | sotrastaurin 0.024

CNOT2 (UniProt Q9NZN8)
inactive: vemurafenib 0.037 | [1] -0.026 | barasertib 0.065 | [2] 0.029 | volasertib -0.048 | [3] 0.039 | [4] 0.17 | [5] -0.059 | saracatinib -0.013 | sotrastaurin 0.002

COG6 (UniProt Q9Y2V7)
inactive: vemurafenib 0.062 | [1] 0.013 | barasertib 0.072 | [2] -0.004 | volasertib -0.046 | [3] 0.015 | [4] -0.116 | [5] 0.017 | saracatinib 0.073 | sotrastaurin -0.017

COPB1 (UniProt P53618)
inactive: vemurafenib 0.008 | [1] 0.023 | barasertib -0.018 | [2] -0.038 | volasertib 0.005 | [3] -0.025 | [4] -0.11 | [5] 0.062 | saracatinib -0.001 | sotrastaurin -0.004

COX5A (UniProt P20674)
inactive: vemurafenib -0.022 | [1] -0.044 | barasertib 0.054 | [2] 0.049 | volasertib 0.048 | [3] 0.046 | [4] 0.198 | [5] -0.182 | saracatinib 0.016 | sotrastaurin -0.003

COG8 (UniProt Q96MW5)
inactive: vemurafenib 0.037 | [1] -0.049 | barasertib -0.014 | [2] -0.063 | volasertib -0.083 | [3] 0.09 | [4] -0.089 | [5] -0.163 | saracatinib -0.017 | sotrastaurin 0.041

CPQ (UniProt Q9Y646)
inactive: vemurafenib -0.006 | [1] 0.004 | barasertib -0.027 | [2] 0.061 | volasertib 0.03 | [3] -0.031 | [4] 0.026 | [5] -0.005 | saracatinib 0.014 | sotrastaurin -0.02

COL18A1 (UniProt P39060)
inactive: vemurafenib 0.062 | [1] -0.024 | barasertib 0.015 | [2] -0.022 | volasertib 0.055 | [3] -0.051 | [4] -0.039 | [5] 0.02 | saracatinib 0.04 | sotrastaurin -0.027

COPB2 (UniProt P35606)
inactive: vemurafenib -0.007 | [1] 0.022 | barasertib 0.001 | [2] -0.006 | volasertib 0.001 | [3] -0.008 | [4] -0.062 | [5] 0.037 | saracatinib -0.007 | sotrastaurin -0.01

CNST (UniProt Q6PJW8)
inactive: vemurafenib 0.002 | [1] -0.026 | barasertib -0.07 | [2] 0.079 | volasertib -0.008 | [3] 0.02 | [4] -0.066 | [5] 0.019 | saracatinib 0.033 | sotrastaurin 0.039

COIL (UniProt P38432)
inactive: vemurafenib -0.052 | [1] -0.029 | barasertib 0.027 | [2] 0.061 | volasertib -0.056 | [3] -0.004 | [4] 0.056 | [5] -0.027 | saracatinib -0.038 | sotrastaurin 0.007

CNOT8 (UniProt Q9UFF9)
inactive: vemurafenib 0.029 | [1] -0.064 | barasertib 0.074 | [2] 0.015 | volasertib -0.064 | [3] 0.048 | [4] 0.003 | [5] -0.152 | saracatinib 0.054 | sotrastaurin 0.028

COASY isoform 2 (UniProt Q13057)
inactive: vemurafenib 0.076 | [1] 0.017 | barasertib 0.011 | [2] -0.075 | volasertib -0.098 | [3] 0.034 | [4] -0.063 | [5] 0.038 | saracatinib 0.021 | sotrastaurin 0.079

CPNE3 (UniProt O75131)
inactive: vemurafenib -0.006 | [1] 0.007 | barasertib -0.03 | [2] -0.056 | volasertib -0.03 | [3] 0.032 | [4] -0.117 | [5] 0.085 | saracatinib -0.019 | sotrastaurin -0.004

COX18 (UniProt Q8N8Q8)
inactive: vemurafenib 0.041 | [1] 0.05 | barasertib 0.018 | [2] 0.099 | volasertib -0.001 | [3] 0.008 | [4] 0.002 | [5] -0.046 | saracatinib -0.031 | sotrastaurin 0.038

COX11 (UniProt Q9Y6N1)
inactive: vemurafenib 0.053 | [1] -0.006 | barasertib -0.051 | [2] 0.027 | volasertib 0.03 | [3] -0.043 | [4] 0.172 | [5] 0.042 | saracatinib 0.014 | sotrastaurin -0.03

CPSF6 isoform 2 (UniProt Q16630)
inactive: vemurafenib -0.019 | [1] 0.001 | barasertib -0.011 | [2] -0.034 | volasertib -0.015 | [3] 0.014 | [4] 0.049 | [5] -0.002 | saracatinib -0.004 | sotrastaurin -0.014

COG1 (UniProt Q8WTW3)
inactive: vemurafenib -0.159 | [1] 0.023 | barasertib 0.008 | [2] -0.006 | volasertib -0.067 | [3] -0.032 | [4] -0.114 | [5] -0.076 | saracatinib 0.055 | sotrastaurin 0.047

Random excerpt: 2 entries already listed, in no set order.
CNST (UniProt Q6PJW8)
inactive: vemurafenib 0.002 | [1] -0.026 | barasertib -0.07 | [2] 0.079 | volasertib -0.008 | [3] 0.02 | [4] -0.066 | [5] 0.019 | saracatinib 0.033 | sotrastaurin 0.039

CNOT10 (UniProt Q9H9A5)
inactive: vemurafenib 0.04 | [1] -0.01 | barasertib 0.012 | [2] 0.025 | volasertib 0 | [3] -0.036 | [4] -0.028 | [5] 0.022 | saracatinib 0.02 | sotrastaurin 0.024

Additional results follow:

COX20 isoform 2 (UniProt Q5RI15)
inactive: vemurafenib 0.011 | [1] -0.011 | barasertib -0.329 | [2] 0.144 | volasertib 0.021 | [3] -0.015 | [5] -0.232 | saracatinib -0.015 | sotrastaurin 0.001
active: [4] 0.623

COA1 (UniProt Q9GZY4)
inactive: vemurafenib 0.033 | [1] 0.016 | barasertib 0.022 | [2] 0.025 | volasertib -0.001 | [3] -0.04 | [4] -0.089 | [5] -0.105 | saracatinib -0.04 | sotrastaurin 0.051

COX6C (UniProt P09669)
inactive: vemurafenib 0 | [1] 0 | barasertib 0 | [2] 0.02 | volasertib 0.032 | [3] 0.034 | [4] -0.1 | [5] -0.005 | saracatinib 0.009 | sotrastaurin -0.038

COX6B1 (UniProt P14854)
inactive: vemurafenib 0 | [1] -0.022 | barasertib 0.121 | [2] -0.009 | volasertib 0.083 | [3] -0.029 | [4] 0.079 | [5] -0.094 | saracatinib -0.012 | sotrastaurin 0.029

CPSF7 isoform 3 (UniProt Q8N684)
inactive: vemurafenib -0.022 | [1] 0.006 | barasertib 0.034 | [2] -0.031 | volasertib 0.007 | [3] 0.036 | [4] 0.032 | [5] 0.021 | saracatinib 0.012 | sotrastaurin 0.003

COQ5 (UniProt Q5HYK3)
inactive: vemurafenib 0.091 | [1] 0.001 | barasertib 0.013 | [2] -0.03 | volasertib -0.036 | [3] 0.031 | [4] 0.03 | [5] 0.001 | saracatinib 0.063 | sotrastaurin 0.049

CNOT4 isoform 6 (UniProt O95628)
inactive: vemurafenib -0.052 | [1] 0.008 | barasertib -0.014 | [2] 0.057 | volasertib 0.009 | [3] 0.108 | [4] -0.053 | [5] 0 | saracatinib 0.057 | sotrastaurin -0.005

COG7 (UniProt P83436)
inactive: vemurafenib 0.003 | [1] 0.018 | barasertib 0.017 | [2] -0.054 | volasertib -0.076 | [3] -0.003 | [4] -0.209 | [5] -0.019 | saracatinib 0.05 | sotrastaurin 0.039

COA4 isoform 2 (UniProt Q9NYJ1)
inactive: vemurafenib -0.061 | [1] -0.017 | barasertib 0.175 | [2] 0.1 | volasertib 0.105 | [3] 0 | [4] 0.037 | [5] -0.278 | saracatinib 0.021 | sotrastaurin 0.082

CORO1C isoform 3 (UniProt Q9ULV4)
inactive: vemurafenib -0.014 | [1] -0.01 | barasertib -0.035 | [2] 0.024 | volasertib 0.008 | [3] -0.016 | [4] -0.006 | [5] 0.016 | saracatinib -0.009 | sotrastaurin 0.008

COPS3 (UniProt Q9UNS2)
inactive: vemurafenib 0.025 | [1] 0.009 | barasertib 0.008 | [2] 0.054 | volasertib 0.019 | [3] -0.044 | [4] -0.039 | [5] 0.07 | saracatinib -0.003 | sotrastaurin -0.012
